Measured values as given in PMC7641127, “MCL1 binds and negatively regulates the transcriptional function of tumor suppressor p73” (Cell Death & Disease, 2020).
Construct, isoform or probe ends are uncertain for at least one entry. For some assays here: A negative result means that nothing was seen under these conditions. For some assays here: A weaker result is weaker than the reference pair of the same experiment. For some assays here: At least one verdict was read from the data and is not stated in words by the source. For some assays here: Tags and fusion partners may be left off the protein sequences shown.

Sequences of proteins named here, by UniProt entry; tags and fusion partners are left off. Residues count along the entry.
UniProt Q07820, 171-327: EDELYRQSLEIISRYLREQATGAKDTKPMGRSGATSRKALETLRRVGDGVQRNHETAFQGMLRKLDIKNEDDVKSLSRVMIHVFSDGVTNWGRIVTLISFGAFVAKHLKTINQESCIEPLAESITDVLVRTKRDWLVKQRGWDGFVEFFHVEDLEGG

What was measured:
p73DBD [1] = target: T1, p73DBD (UniProt O15350); assay: fluorescence polarization; settings: lower affinity than p73DBD-TD; FPA: 1x PBS pH 7.4, 30 min shaking, DNA annealed in 5 mM Tris, 5 mM KCl, 0.01% Triton, 0.2 mM DTT pH 8.6; recombinant protein; residues 112-311; label: 5'-FITC on forward strand
T1 sequence (looked up): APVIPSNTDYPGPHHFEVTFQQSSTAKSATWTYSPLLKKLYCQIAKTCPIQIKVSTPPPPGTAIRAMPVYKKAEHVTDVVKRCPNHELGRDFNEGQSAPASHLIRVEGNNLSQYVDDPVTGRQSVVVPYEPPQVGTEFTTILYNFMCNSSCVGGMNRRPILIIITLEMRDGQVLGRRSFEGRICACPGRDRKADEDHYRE

p73DBD-TD [2] = target: T2, p73DBD-TD (UniProt O15350); assay: fluorescence polarization; settings: higher affinity than p73DBD; FPA: 1x PBS pH 7.4, 30 min shaking, DNA annealed in 5 mM Tris, 5 mM KCl, 0.01% Triton, 0.2 mM DTT pH 8.6; recombinant protein; residues 112-398; label: 5'-FITC on forward strand
T2 sequence (looked up): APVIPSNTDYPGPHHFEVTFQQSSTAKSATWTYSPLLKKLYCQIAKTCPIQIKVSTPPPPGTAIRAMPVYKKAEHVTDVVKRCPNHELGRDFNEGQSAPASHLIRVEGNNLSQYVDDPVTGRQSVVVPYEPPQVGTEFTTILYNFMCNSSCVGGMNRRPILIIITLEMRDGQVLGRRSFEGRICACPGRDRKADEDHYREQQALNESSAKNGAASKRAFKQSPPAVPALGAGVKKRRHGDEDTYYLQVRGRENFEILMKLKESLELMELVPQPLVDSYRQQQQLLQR

MCL1 = MCL1 (UniProt Q07820); assay: EMSA; settings: 200 uM MCL1 alone, no p73, free DNA migration unchanged; EMSA: on ice 15+15 min, 1 uM FITC-DNA, proteins in 1x PBS pH 6.8, native TGX gel in 1x Tris/glycine; recombinant protein; label: 5'-FITC on forward strand
p73DBD [3] = target: T1, p73DBD; assay: EMSA; settings: 10 uM p73DBD, 1 uM DNA, MCL1 10-200 uM has no effect on binding; EMSA: on ice 15+15 min, 1 uM FITC-DNA, proteins in 1x PBS pH 6.8, native TGX gel in 1x Tris/glycine; recombinant protein; residues 112-311; label: 5'-FITC on forward strand
p73DBD-TD [4] = target: T2, p73DBD-TD; assay: EMSA; settings: 10 uM p73DBD-TD, 1 uM DNA, EMSA: on ice 15+15 min, 1 uM FITC-DNA, proteins in 1x PBS pH 6.8, native TGX gel in 1x Tris/glycine, recombinant protein, residues 112-398, label: 5'-FITC on forward strand

GAGCGTGTCCGGGCAGGTCG (double strand) [F-NOXA response element]
binding result (p73DBD [1]): binds more weakly | binding result (p73DBD-TD [2]): binds

GAACATGTCTAGGCATGCTG (double strand) [F-GADD45 response element]
binding result (MCL1): no binding | binding result (p73DBD [3]): binds | binding result (p73DBD-TD [4]; no MCL1): binds | binding signal (% reduction of DNA binding) (p73DBD-TD [4]; MCL1 titrated 10-200 uM): 27 | binding result (p73DBD [1]): binds more weakly | binding result (p73DBD-TD [2]): binds
